Results from patent US9783833B2, “Biocatalytic methods to convert cyclohexane oxidation process waste streams to useful products” (INVISTA NORTH AMERICA S.A. R.L., priority 2011, dated 2017).

System: wild-type Yarrowia lipolytica
Assay: Chemo-stat fermentation with cell retention using NVR as carbon and energy source
Conditions: for Synthesis (S), Catabolism (C), or Non-metabolized (NM): steady state, 2% (v/v) NVR, ~215 mL/h, biomass dilution rate ~0.025 h^-1
Excerpt: The experimental set-up provided for a NVR Feed, Nutrient Feed and Base Feed (12% (v/v) NH3 (aq.)) that was filter sterilized into the fermenter via peristaltic pumps. Furthermore, a peristaltic pump provided the necessary cross-flow retentate flow rate to the hollow fibre membrane, a peristaltic pump allowed withdrawal of permeate and a peristaltic pump allowed for a biomass bleed from the fermenter.
The chemo-stat's control philosophy entailed manual feed ratio control of the NVR Feed to Nutrient Feed rates, pH control via the Base Feed, temperature control via cooling water supply to the fermenter's jacket, fixed aeration & agitation rates via the respective feedback loops, fixed cross-flow rate via the retentate pump's variable speed drive, manual level control via the permeate pump and manual dilution rate control via the bleed pump.
The initial charge minimal media was prepared (6.7 g/L yeast base without amino acids+(NH4)2SO4, 15 g/L glucose, 75 mg/L citric acid (Mr.=210 g/mol), 5.8 g/L sodium citrate (Mr.=294.1 g/mol), 10.7 g/L K2HPO4 (Mr.=174 g/mol), 5.2 g/L KH2PO4 (M=136.1 g/mol), and 2 mL/L antifoam) and the Nutrient Feed was prepared (6.7 g/L yeast base without amino acids+(NH4)2SO4, 75 mg/L citric acid (Mr.=210 g/mol), 5.8 g/L sodium citrate (Mr.=294.1 g/mol), 10.7 g/L K2HPO4 (Mr.=174 g/mol), 5.2 g/L KH2PO4 (M=136.1 g/mol), and 2 mL/L antifoam). The control parameters for the fermenter were set up (A1 and A2: 1 vvm aeration, pH 7.0, DO calibration at pH 7.0 and 1 vvm to 100% saturation, 28° C., 750 rpm initial agitation until glucose depletion, 1250 rpm final agitation after glucose depletion, manual antifoam).
The fermenter was inoculated with a 10% (v/v) inoculum from a wild-type Yarrowia lipolytica shake flask that was grown overnight from a cryopreserved stock.

O=C(O)CCCCO [5-hydroxyvaleric acid]
Synthesis (S), Catabolism (C), or Non-metabolized (NM): S

O=C(O)CCC(=O)O [succinic acid]
Synthesis (S), Catabolism (C), or Non-metabolized (NM): S

O=C(O)CCCCCO [6-hydroxycaproic acid]
Synthesis (S), Catabolism (C), or Non-metabolized (NM): S

O=C1CCCCO1 [δ-valerolactone]
accumulation in the broth (cell retention chemo-stat, 2% (v/v) effective NVR feed): ca. 1.7 g/L

O=C(O)CCCC(=O)O [glutaric acid]
Synthesis (S), Catabolism (C), or Non-metabolized (NM): S
